In article PMC6706451, “Crystal structure and substrate-induced activation of ADAMTS13” (Nature Communications, 2019):
Results are given in words; binding and its absence hold for the method and conditions named. Some entries that bind do so weakly or less than the wild type.

The chains behind the UniProt entries cited, without tags or fusion partners. Where a name states a change or a piece, a line headed by the entry shows the natural chain unless it says otherwise. A line that says so, or that is headed by a name, gives the form on record, which may keep a tag or linker. Residues count along the entry.
VWF96-MP (P04275, form named): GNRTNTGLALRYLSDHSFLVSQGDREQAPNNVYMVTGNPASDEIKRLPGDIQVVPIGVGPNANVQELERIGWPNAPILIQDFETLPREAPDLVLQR
UniProt Q76LX8, residues 75-1427: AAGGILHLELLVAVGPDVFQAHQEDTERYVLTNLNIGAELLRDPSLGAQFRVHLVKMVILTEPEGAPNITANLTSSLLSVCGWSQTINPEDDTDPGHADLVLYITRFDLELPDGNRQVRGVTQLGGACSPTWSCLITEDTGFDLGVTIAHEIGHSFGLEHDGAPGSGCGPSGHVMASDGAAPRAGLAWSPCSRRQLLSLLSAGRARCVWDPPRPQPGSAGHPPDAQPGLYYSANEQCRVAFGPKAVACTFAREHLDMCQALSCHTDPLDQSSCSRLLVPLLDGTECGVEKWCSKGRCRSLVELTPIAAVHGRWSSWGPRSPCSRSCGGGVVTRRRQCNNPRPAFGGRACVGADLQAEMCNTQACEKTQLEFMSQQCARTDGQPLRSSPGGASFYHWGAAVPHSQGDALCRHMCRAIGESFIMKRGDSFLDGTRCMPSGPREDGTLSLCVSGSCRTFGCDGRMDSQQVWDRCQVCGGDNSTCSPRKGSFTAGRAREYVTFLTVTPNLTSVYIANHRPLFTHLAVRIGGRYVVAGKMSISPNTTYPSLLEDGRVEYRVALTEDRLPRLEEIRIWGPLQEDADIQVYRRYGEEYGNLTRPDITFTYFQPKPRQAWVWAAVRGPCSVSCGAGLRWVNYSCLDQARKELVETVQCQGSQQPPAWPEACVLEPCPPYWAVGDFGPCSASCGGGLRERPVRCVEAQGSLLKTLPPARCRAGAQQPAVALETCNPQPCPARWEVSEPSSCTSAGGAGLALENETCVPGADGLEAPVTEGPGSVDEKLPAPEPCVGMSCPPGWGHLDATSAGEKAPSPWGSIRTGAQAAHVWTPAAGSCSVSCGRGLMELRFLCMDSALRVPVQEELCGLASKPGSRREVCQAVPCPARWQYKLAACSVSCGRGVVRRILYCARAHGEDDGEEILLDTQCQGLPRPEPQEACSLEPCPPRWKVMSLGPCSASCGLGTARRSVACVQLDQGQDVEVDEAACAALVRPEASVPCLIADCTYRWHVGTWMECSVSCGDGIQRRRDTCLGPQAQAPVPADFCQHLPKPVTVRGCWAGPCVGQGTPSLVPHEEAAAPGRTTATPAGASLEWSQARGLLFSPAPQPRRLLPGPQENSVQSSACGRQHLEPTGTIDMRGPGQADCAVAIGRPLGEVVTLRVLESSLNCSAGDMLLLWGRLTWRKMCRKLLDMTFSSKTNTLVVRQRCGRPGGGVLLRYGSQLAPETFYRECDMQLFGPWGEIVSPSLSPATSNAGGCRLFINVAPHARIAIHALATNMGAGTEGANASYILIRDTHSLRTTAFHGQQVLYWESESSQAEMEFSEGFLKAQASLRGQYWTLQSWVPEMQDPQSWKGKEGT

Biological target: VWF96-MP (human) (UniProt P04275)
Assay: ELISA; plate binding: 100 nM VWF96 or variant adsorbed on 96-well plates (50 mM sodium bicarbonate pH 9.6, overnight, 4 °C); 0-600 nM ADAMTS13 in PBS/1% BSA/80 mM EDTA, room temperature, 1.5 h (legend: 1 h); detected with biotinylated anti-ADAMTS13 TSP2-4 polyclonal antibody; one-site fit; apparent KD; only the target purified

ADAMTS13 (from UniProt Q76LX8 75-1427) (enzyme)
binding: binds
